In PubChem BioAssay AID218 (DTP/NCI, 2004):
The list does not hold the whole screen: it gathers some chemical classes. Not every dose and run of a compound is shown. T/C is the treated group as % of the vehicle group. Some T/C values are marked as having no survivor count here; that says nothing about deaths at the dose. Schedule codes are those of the source, read here as Q, the interval in days (D) or hours (H), X, the number of doses.

Tested on: C57BL/6 mice, Adenocarcinoma 755 sc, tumor weight T/C
Experiment: NCI In Vivo Anticancer Drug Screen. Data for tumor model Adenocarcinoma 755 (subcutaneous) in C57BL/6 mice
Conditions: T/C endpoint: mean tumor weight, schedule: Q01DX011 (ip), vehicle: saline, evaluation day not shown, higher T/C = larger tumour
Experimental: The antitumor activity of compounds was measured in mice bearing transplantable tumors. Survival or tumor size were measured and the results are expressed as the measurement made in the treated group (T) divided by the measurement made in the vehicle treated control group (C). The tumor model used in this assay is Adenocarcinoma 755 (subcutaneous) in C57BL/6 mice

SMILES: CN(CCCl)CCCl
- T/C (dose: 0.05 mg/kg/injection): 85 % of control [survivor count not shown]
- T/C (dose: 0.13 mg/kg/injection): 96 % of control [survivor count not shown]
- T/C (dose: 0.25 mg/kg/injection): 70 % of control [survivor count not shown]
- T/C (dose: 0.5 mg/kg/injection): 60 % of control [survivor count not shown]
- T/C (dose: 0.75 mg/kg/injection): 46 % of control [survivor count not shown]
